The values that follow come from PMC4105463.

This assay has as its target T1, stefin B wild type (C3E31) fused to a half of the yellow fluorescent protein (human) (UniProt P04080).
T1 sequence: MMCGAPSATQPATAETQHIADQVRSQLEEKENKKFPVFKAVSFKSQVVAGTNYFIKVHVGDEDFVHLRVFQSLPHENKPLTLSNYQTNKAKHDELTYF
The assay can be described thus: split reporter; split YFP halves (NYFP, CYFP) on the C-terminus of each protein, co-transfected in HEK293 cells, live adherent cells imaged by confocal microscopy (488 nm).

These are yes or no findings as the source states them, for the method shown. In cells and extracts the contact can be indirect. Tags and fused reporters may be left off the sequences shown.

With “SUMO protein fused to the C-terminal half of the yellow fluorescent protein”, the binding result is listed as “no binding”.
